Laboratory results reported in the supplement of paper PMC4962491.
Structures can show the parent of a compound that is named as a salt. ± gives the standard deviation of the averaged measurements. The list shows a part of the results, in another mix than the full data. Repeats in this data set agree poorly, so a single value says little. Numbered stars: 1 amine (or outer) side, 2 acyl side, 3 side chain; on linkers, the order of the positions; unused ones are H or OH. Bridge positions count the residues as written; N and C are the ends. Square brackets hold non-standard residues; d marks the D form. Peptide text beside a SMILES is read from it. * marks the point of attachment. ξ: configuration not given here. Ileψ(thiazoline)Cys = CC[C@H](C)[C@H](N)C1=N[C@H](C(=O)*)CS1; X4 = O=C([C@H](N[*:1])C1CCC(O)CC1)[*:2]; X6 = O=C(C(N[*:1])C1CCC(O)C(Cl)C1)[*:2]; X5 = O=C(C(N[*:1])C1CCC(O)CC1)[*:2]; aThr = C[C@H](O)[C@H](N)C(=O)O; dOrn = NCCC[C@@H](N)C(=O)O; X3 = CCC/C=C\C=C/C(=O)*; ξN = NC(=O)CC(N)C(=O)O

Test system: FaDu
Assay: mitochondrial oxygen consumption rate normalised to cell number, Z score over the library; higher = higher oxygen consumption (negative = OCR reduction)
Settings: treatment time 24 h, assay medium: 5 mM galactose, 5 mM pyruvate, 4 mM glutamine
Description: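 Primary screen: FaDu cells were incubated 24 h with Pharmakon 1600 / TDI oncology set compounds at 2 or 10 uM. Mitochondrial-specific OCR (basal minus 2 uM antimycin A) was measured on a Seahorse XF96 in assay medium with 5 mM galactose, 5 mM pyruvate and 4 mM glutamine, then corrected for Hoechst cell number and expressed as a Z score […]. Compounds that cut cell number by >66% were excluded. Two repeats.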

Row | SMILES | mitochondrial oxygen consumption rate normalised (2 µM) | mitochondrial oxygen consumption rate normalised (10 µM)
1 | O=C(CCCCCCCC(=O)NCCO)NCCO | -0.904 ± 0.4 | –
2 | CN1[C@@H]2CC[C@H]1C[C@@H](OC(=O)c1c[nH]c3ccccc13)C2 | -3.09 ± 2 | –
3 | CC(=O)[C@H]1CC[C@H]2[C@@H]3C=CC4=CC(=O)CC[C@@]4(C)[C@@H]3CC[C@]12C | -0.00235 ± 0.59 | –
4 | Cc1cc(=O)[nH]c(=S)[nH]1 | -1.41 ± 1 | –
5 | COc1ccccc1OCC(O)CO (configuration not stated) | -0.69 ± 0.67 | –
6 | CC[C@]1(O)C[C@H]2CN(CCc3c([nH]c4ccccc34)[C@@](C(=O)OC)(c3cc4c(cc3OC)N(C=O)[C@H]3[C@@](O)(C(=O)OC)[C@H](OC(C)=O)[C@]5(CC)C=CCN6CC[C@]43[C@@H]65)C2)C1 | 0.448 ± 0.25 | –
7 | CC[C@]1(O)C[C@H]2CN(CCc3c([nH]c4ccccc34)[C@@](C(=O)OC)(c3cc4c(cc3OC)N(C=O)[C@H]3[C@@](O)(C(=O)OC)[C@H](OC(C)=O)[C@]5(CC)C=CCN6CC[C@]43[C@@H]65)C2)C1 [Vincristine Sulfate] | 0.678 ± 0.53 | –
8 | NC[C@@H]1O[C@H](O[C@H]2[C@@H](O)[C@H](O[C@@H]3[C@@H](O)[C@H](N)C[C@H](N)[C@H]3O[C@H]3O[C@H](CO)[C@@H](O)[C@H](O)[C@H]3N)O[C@@H]2CO)[C@H](N)[C@@H](O)[C@@H]1O | 0.884 ± 0.16 | –
9 | COc1cc2c(N3CCN(C(=O)Nc4ccc(OC(C)C)cc4)CC3)ncnc2cc1OCCCN1CCCCC1 | 0.932 ± 1.6 | –
10 | CC(C(=O)O)c1ccc(-c2ccccc2)c(F)c1 (configuration not stated) | -0.985 ± 0.56 | –
11 | O=C(OCC(O)CO)c1ccccc1Nc1ccnc2cc(Cl)ccc12 (configuration not stated) | -0.0365 ± 0.92 | –
12 | Cc1c(OCC(F)(F)F)ccnc1C[S@@+]([O-])c1nc2ccccc2[nH]1 | 0.509 ± 0.26 | –
13 | CN(C)C(=O)C(CCN1CCC(O)(c2ccc(Cl)cc2)CC1)(c1ccccc1)c1ccccc1 | -1.38 ± 0.13 | –
14 | CC(=O)C1C(=O)C=C(C)OC1=O (configuration not stated) | 0.646 ± 0.39 | –
15 | Nc1nc2[nH]cnc2c(=S)[nH]1 | -1.61 ± 0.025 | -2.58 ± 0.18
16 | Nc1nc2[nH]cnc2c(=S)[nH]1 [Thioguanine] | 0.0792 ± 0.94 | 0.0465 ± 0.27
17 | O=C1c2c(O)cccc2C([C@@H]2O[C@H](CO)[C@@H](O)[C@H](O)[C@H]2O)c2cc(CO)cc(O)c21 (some centres not stated) | 1.54 ± 2.8 | –
18 | Cc1cccc(C)c1NC(=O)C(C)N (configuration not stated) | 0.412 ± 1.1 | –
19 | CO/N=C(\C(=O)N[C@@H]1C(=O)N2C(C(=O)O)=C(CSc3nnnn3C)CS[C@H]12)c1csc(N)n1 | 0.547 ± 0.28 | –
20 | CC(C(=O)O)c1ccc2c(c1)[nH]c1ccc(Cl)cc12 (configuration not stated) | 0.118 ± 0.67 | –
21 | CCOC(=O)O[C@]1(C(=O)COC(=O)CC)CC[C@H]2[C@@H]3CCC4=CC(=O)C=C[C@]4(C)[C@H]3[C@@H](O)C[C@@]21C | -0.189 ± 1.3 | –
22 | O=C(O)c1cc(/N=N/c2ccc(O)c(C(=O)O)c2)ccc1O | -1.41 ± 0.16 | –
23 | COc1ccc2c(c1OC)C(=O)O[C@@H]2[C@H]1c2c(cc3c(c2OC)OCO3)CCN1C | 0.497 ± 0.3 | –
24 | CC(=O)NCCCS(=O)(=O)O | 0.0258 ± 0.28 | –
25 | C=C1c2c(Cl)ccc(O)c2C(=O)C2=C(O)[C@]3(O)C(=O)C(C(N)=O)=C(O)[C@@H](N(C)C)[C@@H]3[C@@H](O)[C@H]12.O=C(O)c1cc(S(=O)(=O)O)ccc1O | 0.605 ± 0.29 | –

Row | SMILES | mitochondrial oxygen consumption rate normalised (2 µM) | mitochondrial oxygen consumption rate normalised (10 µM)
26 | CC(C)(C)NCC(O)COc1cccc2c1CCC(=O)N2 (configuration not stated) | 0.219 ± 0.2 | –
27 | COc1ccc2c(c1)c(CC(=O)O)c(C)n2C(=O)c1ccc(Cl)cc1 | -1.61 ± 1.9 | –
28 | CN1CCC(=C2c3ccccc3CCc3cccnc32)CC1 | -0.554 ± 0.057 | –
29 | OC[C@H]1O[C@H](O[C@]2(CCl)O[C@H](CCl)[C@@H](O)[C@@H]2O)[C@H](O)[C@@H](O)[C@H]1Cl | 0.484 ± 0.55 | –
30 | O=C(C1CCCCC1)N1CC(=O)N2CCc3ccccc3C2C1 (configuration not stated) | 0.0217 ± 0.33 | –
31 | CC(C)(C#N)c1cc(Cn2cncn2)cc(C(C)(C)C#N)c1 [Anastrozole] | 0.686 ± 0.088 | –
32 | Oc1c(I)cc(Cl)c2cccnc12 | 0.642 ± 0.069 | –
33 | CN(C)CCOC(C)(c1ccccc1)c1ccccn1 (configuration not stated) | -0.975 ± 0.29 | –
34 | C=CCNC(N)=S | 0.478 ± 1.5 | –
35 | CC(=O)c1ccc2c(c1)N(CCCN(C)C)c1ccccc1S2 | -0.211 ± 0.39 | –
36 | Nc1ccn([C@H]2CC[C@@H](CO)O2)c(=O)n1 | 0.894 ± 0.32 | –
37 | CN(C(=O)C(Cl)Cl)c1ccc(OC(=O)c2ccco2)cc1 | -0.0678 ± 0.63 | –
38 | COc1cc(/C=C/C(N)=O)cc(OC)c1OC | -0.512 ± 0.73 | –
39 | CNC[C@H](O)c1ccc(O)c(O)c1 | 0.116 ± 0.45 | –
40 | COc1ccc(OC)c(C(O)CNC(=O)CN)c1 (configuration not stated) | 0.73 ± 0.71 | 0.934 ± 0.11
41 | CC(S)C(=O)NCC(=O)O (configuration not stated) | 0.0784 ± 0.56 | –
42 | CN1CCN(CCCN2c3ccccc3Sc3ccc(C(F)(F)F)cc32)CC1 | 0.346 ± 0.43 | –
43 | CC[C@H](C)[C@H](N)C1=N[C@H](C(=O)N[C@@H](CC(C)C)C(=O)N[C@H](CCC(=O)O)C(=O)N[C@H](C(=O)N[C@H]2CCCCNC(=O)[C@H](CC(N)=O)NC(=O)[C@@H](CC(=O)O)NC(=O)[C@H](Cc3cnc[nH]3)NC(=O)[C@@H](Cc3ccccc3)NC(=O)[C@H]([C@@H](C)CC)NC(=O)[C@@H](CCCN)NC2=O)[C@@H](C)CC)CS1 ({Ileψ(thiazoline)Cys}-L[dE]IK[dOrn]I[dF]H[dD]N; lactam 4-C) | 0.371 ± 0.25 | –
44 | CC(=O)NS(=O)(=O)c1ccc(NC(=O)c2ccccc2C(=O)O)cc1 | 0.467 ± 0.3 | –
45 | CCc1nc(N)nc(N)c1-c1ccc(Cl)cc1 | -0.408 ± 0.24 | –
46 | CC(=O)[C@@]1(O)CC[C@H]2[C@@H]3C[C@H](C)C4=CC(=O)C=C[C@]4(C)[C@@]3(F)[C@@H](O)C[C@@]21C | -0.612 ± 0.62 | –
47 | CN1CC(=O)N2[C@H](c3ccc4c(c3)OCO4)c3[nH]c4ccccc4c3C[C@@H]2C1=O | 0.635 ± 0.72 | –
48 | C1CCC(C(CC2CCCCN2)C2CCCCC2)CC1 (configuration not stated) | 1.16 ± 0.64 | –
49 | CCC/C=C\C=C/C(=O)N[C@@H](CC(N)=O)C(=O)NC(CC(N)=O)C(=O)N[C@@H](C(=O)N[C@H](CCCN)C(=O)N[C@@H](C(=O)N[C@@H](C(=O)N[C@@H](C(=O)N[C@H](C(=O)N[C@@H](Cc1ccccc1)C(=O)N[C@H](CCCN)C(=O)NC(C(=O)N[C@H](C(=O)NC(C(=O)NCC(=O)N[C@@H](CC(C)C)C(=O)N[C@H](C)C(=O)NC(C(=O)O)C1CCC(O)C(Cl)C1)C1CCC(O)CC1)[C@H](C)O)C1CCC(O)CC1)[C@H](C)O)C1CCC(O)CC1)C1CCC(O)CC1)[C@H](C)O)C1CCC(O)CC1 (some centres not stated) [RAMOPLANIN [A2 shown; 2mM]] (X3-N[ξN][X4][dOrn][dT][X4][X4][aThr]F[dOrn][X5][aThr][X5]GL[dA][X6]-OH) | 0.635 ± 0.83 | –
